According to the supplement of paper PMC7661543:
Differences between knockout arms are mostly noise.

Tests used:
HCC-38 = experiment: relative cell number vs DMSO control (72 h) (% of DMSO); higher = less growth inhibition (more cells)
Experimental: (§1)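 QMAP-Seq: a pool of 5 breast cancer cell lines (ZR-75-1, SKBR3, HCC-38, MDA-MB-231, BT-20), each carrying 12 doxycycline-inducible Cas9 sgRNA perturbations (11 knockouts plus non-targeting sgNT), was treated with compounds for 72 h at four 10-fold doses (10 nM-10 uM or 1 nM-1 uM range). Barcodes were amplified and sequenced, and cell number was interpolated from 293T spike-in standard curves. The result is expressed as % of the median of DMSO wells. Two biological replicates.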

BT-20 = experiment: as above
Experimental: as §1

COc1cc(/C=C/C(=O)CC(=O)/C=C/c2ccc(O)c(OC)c2)ccc1O [Curcumin]
relative cell number
Settings | BT-20 | HCC-38
sgRNA knockout: sgATF3, 10 nM | 102 | 108
sgRNA knockout: sgATF3, 100 nM | 113 | 95.4
sgRNA knockout: sgATF3, 1000 nM | 106 | 88.7
sgRNA knockout: sgATF3, 10000 nM | 93.1 | 76.1
sgRNA knockout: sgATF4, 10 nM | 115.2 | 95.7
sgRNA knockout: sgATF4, 100 nM | 116 | 100
sgRNA knockout: sgATF4, 1000 nM | 94.7 | 94.7
sgRNA knockout: sgATF4, 10000 nM | 82.9 | 73.5
sgRNA knockout: sgATF6, 10 nM | 114 | 103
sgRNA knockout: sgATF6, 100 nM | 107 | 91.8
sgRNA knockout: sgATF6, 1000 nM | 113 | 87.5
sgRNA knockout: sgATF6, 10000 nM | 88.8 | 84.8
sgRNA knockout: sgATG7, 10 nM | 122 | 104
sgRNA knockout: sgATG7, 100 nM | 93.1 | 111
sgRNA knockout: sgATG7, 1000 nM | 101 | 97.4
sgRNA knockout: sgATG7, 10000 nM | 110 | 83.5
sgRNA knockout: sgERN1, 10 nM | 113 | 106
sgRNA knockout: sgERN1, 100 nM | 98.7 | 108
sgRNA knockout: sgERN1, 1000 nM | 106.7 | 96.6
sgRNA knockout: sgERN1, 10000 nM | 79.3 | 77.2
sgRNA knockout: sgHSF1, 10 nM | 99.81 | 102
sgRNA knockout: sgHSF1, 100 nM | 104 | 105
sgRNA knockout: sgHSF1, 1000 nM | 103 | 96.1
sgRNA knockout: sgHSF1, 10000 nM | 97.9 | 84.9
sgRNA knockout: sgHSF2, 10 nM | 104 | 99.3
sgRNA knockout: sgHSF2, 100 nM | 91.7 | 105
sgRNA knockout: sgHSF2, 1000 nM | 111 | 105
sgRNA knockout: sgHSF2, 10000 nM | 84.9 | 90.6
sgRNA knockout: sgKEAP1, 10 nM | 98.7 | 107
sgRNA knockout: sgKEAP1, 100 nM | 93.3 | 112
sgRNA knockout: sgKEAP1, 1000 nM | 103 | 103
sgRNA knockout: sgKEAP1, 10000 nM | 85.6 | 76.4
sgRNA knockout: sgNFE2L2, 10 nM | 130 | 89.1
sgRNA knockout: sgNFE2L2, 100 nM | 115 | 94.7
sgRNA knockout: sgNFE2L2, 1000 nM | 121 | 90.6
sgRNA knockout: sgNFE2L2, 10000 nM | 113 | 72.2
sgRNA knockout: sgSLC35F2, 10 nM | 108 | 97.4
sgRNA knockout: sgSLC35F2, 100 nM | 91.1 | 101
sgRNA knockout: sgSLC35F2, 1000 nM | 111 | 89.9
sgRNA knockout: sgSLC35F2, 10000 nM | 91.2 | 76.8
sgRNA knockout: sgXBP1, 10 nM | 118 | 95.7
sgRNA knockout: sgXBP1, 100 nM | 107 | 96.9
sgRNA knockout: sgXBP1, 1000 nM | 120 | 97.7
sgRNA knockout: sgXBP1, 10000 nM | 85.9 | 80.5

CN(C)C(=O)c1ccc(S(=O)(=O)c2ccc(NC(=O)[C@@](C)(O)C(F)(F)F)c(Cl)c2)cc1 [AZD7545]
relative cell number
Settings | BT-20 | HCC-38
sgRNA knockout: sgATF3, 10 nM | 107 | 103
sgRNA knockout: sgATF3, 100 nM | 90.3 | 88.5
sgRNA knockout: sgATF3, 1000 nM | 101 | 102
sgRNA knockout: sgATF3, 10000 nM | 88.8 | 84.2
sgRNA knockout: sgATF4, 10 nM | 85.58 | 90.4
sgRNA knockout: sgATF4, 100 nM | 114 | 80.4
sgRNA knockout: sgATF4, 1000 nM | 107 | 98.6
sgRNA knockout: sgATF4, 10000 nM | 90.3 | 77.5
sgRNA knockout: sgATF6, 10 nM | 105 | 110
sgRNA knockout: sgATF6, 100 nM | 106 | 97.8
sgRNA knockout: sgATF6, 1000 nM | 85.2 | 98.7
sgRNA knockout: sgATF6, 10000 nM | 95.9 | 81.3
sgRNA knockout: sgATG7, 10 nM | 91.5 | 104
sgRNA knockout: sgATG7, 100 nM | 107 | 86.7
sgRNA knockout: sgATG7, 1000 nM | 103 | 101
sgRNA knockout: sgATG7, 10000 nM | 80.2 | 82.6
sgRNA knockout: sgERN1, 10 nM | 107 | 114
sgRNA knockout: sgERN1, 100 nM | 88.5 | 94.6
sgRNA knockout: sgERN1, 1000 nM | 98.3 | 99.8
sgRNA knockout: sgERN1, 10000 nM | 76.1 | 71.7
sgRNA knockout: sgHSF1, 10 nM | 106 | 103
sgRNA knockout: sgHSF1, 100 nM | 85.4 | 101
sgRNA knockout: sgHSF1, 1000 nM | 104 | 81.8
sgRNA knockout: sgHSF1, 10000 nM | 78.3 | 79
sgRNA knockout: sgHSF2, 10 nM | 114.6 | 97.9
sgRNA knockout: sgHSF2, 100 nM | 96.6 | 101
sgRNA knockout: sgHSF2, 1000 nM | 99.5 | 101
sgRNA knockout: sgHSF2, 10000 nM | 89.4 | 80.5
sgRNA knockout: sgKEAP1, 10 nM | 105 | 100
sgRNA knockout: sgKEAP1, 100 nM | 88.4 | 91.1
sgRNA knockout: sgKEAP1, 1000 nM | 95.3 | 91.6
sgRNA knockout: sgKEAP1, 10000 nM | 88.8 | 75
sgRNA knockout: sgNFE2L2, 10 nM | 98 | 95.9
sgRNA knockout: sgNFE2L2, 100 nM | 80.4 | 80.7
sgRNA knockout: sgNFE2L2, 1000 nM | 88.3 | 97.5
sgRNA knockout: sgNFE2L2, 10000 nM | 57 | 84.1
sgRNA knockout: sgSLC35F2, 10 nM | 115 | 94.6
sgRNA knockout: sgSLC35F2, 100 nM | 90.2 | 80.1
sgRNA knockout: sgSLC35F2, 1000 nM | 101 | 97.6
sgRNA knockout: sgSLC35F2, 10000 nM | 77.4 | 87.9
sgRNA knockout: sgXBP1, 10 nM | 123 | 98.4
sgRNA knockout: sgXBP1, 100 nM | 89.9 | 83.5
sgRNA knockout: sgXBP1, 1000 nM | 109 | 107
sgRNA knockout: sgXBP1, 10000 nM | 83.4 | 80.4

CCN1CCN(c2ccc(Nc3cc(N(C)C(=O)Nc4c(Cl)c(OC)cc(OC)c4Cl)ncn3)cc2)CC1 [BGJ398]
relative cell number
Settings | BT-20 | HCC-38
sgRNA knockout: sgATF3, 10 nM | 104 | 97.7
sgRNA knockout: sgATF3, 100 nM | 99.2 | 70.8
sgRNA knockout: sgATF3, 1000 nM | 90.5 | 58.7
sgRNA knockout: sgATF3, 10000 nM | 86.5 | 61.5
sgRNA knockout: sgATF4, 10 nM | 93.5 | 90.1
sgRNA knockout: sgATF4, 100 nM | 98.7 | 69.4
sgRNA knockout: sgATF4, 1000 nM | 89.6 | 54.6
sgRNA knockout: sgATF4, 10000 nM | 90.6 | 67.2
sgRNA knockout: sgATF6, 10 nM | 107 | 94
sgRNA knockout: sgATF6, 100 nM | 92.6 | 73.7
sgRNA knockout: sgATF6, 1000 nM | 76.8 | 61.1
sgRNA knockout: sgATF6, 10000 nM | 88 | 62.2
sgRNA knockout: sgATG7, 10 nM | 96.2 | 99.8
sgRNA knockout: sgATG7, 100 nM | 98.7 | 67.2
sgRNA knockout: sgATG7, 1000 nM | 86.7 | 54.6
sgRNA knockout: sgATG7, 10000 nM | 80.3 | 60.1
sgRNA knockout: sgERN1, 10 nM | 93.9 | 92.1
sgRNA knockout: sgERN1, 100 nM | 88.5 | 71.2
sgRNA knockout: sgERN1, 1000 nM | 87 | 55.8
sgRNA knockout: sgERN1, 10000 nM | 87.1 | 64.5
sgRNA knockout: sgHSF1, 10 nM | 89.2 | 91.1
sgRNA knockout: sgHSF1, 100 nM | 86.1 | 85.9
sgRNA knockout: sgHSF1, 1000 nM | 88.6 | 68.2
sgRNA knockout: sgHSF1, 10000 nM | 80.8 | 69.1
sgRNA knockout: sgHSF2, 10 nM | 100.7 | 96.8
sgRNA knockout: sgHSF2, 100 nM | 97.5 | 85.4
sgRNA knockout: sgHSF2, 1000 nM | 86.7 | 59
sgRNA knockout: sgHSF2, 10000 nM | 93.7 | 62.16
sgRNA knockout: sgKEAP1, 10 nM | 107 | 122
sgRNA knockout: sgKEAP1, 100 nM | 81.5 | 84.7
sgRNA knockout: sgKEAP1, 1000 nM | 91.8 | 66.2
sgRNA knockout: sgKEAP1, 10000 nM | 74.1 | 45.3
sgRNA knockout: sgNFE2L2, 10 nM | 93.7 | 92.4
sgRNA knockout: sgNFE2L2, 100 nM | 89.9 | 65.1
sgRNA knockout: sgNFE2L2, 1000 nM | 98.8 | 52.9
sgRNA knockout: sgNFE2L2, 10000 nM | 96.9 | 60.3
sgRNA knockout: sgSLC35F2, 10 nM | 94 | 99.3
sgRNA knockout: sgSLC35F2, 100 nM | 111 | 68
sgRNA knockout: sgSLC35F2, 1000 nM | 93.4 | 54
sgRNA knockout: sgSLC35F2, 10000 nM | 99.7 | 64.69
sgRNA knockout: sgXBP1, 10 nM | 110 | 87.4
sgRNA knockout: sgXBP1, 100 nM | 90.4 | 69.1
sgRNA knockout: sgXBP1, 1000 nM | 88.2 | 56.1
sgRNA knockout: sgXBP1, 10000 nM | 96.5 | 56.6
